Laboratory results reported in paper PMC5253655.
Numbering of substitutions follows the chain as printed. Results are given in words; binding and its absence hold for the method and conditions named. In cells and extracts the contact can be indirect. A yes stands for co-enrichment or nearness to the bait. Other partners may have been found. A no says only that the protein was not detected with the bait. Tags and fused reporters may be left off the sequences shown.

By UniProt entry, the sequences of proteins in these tests, tags left out.
UniProt P23330: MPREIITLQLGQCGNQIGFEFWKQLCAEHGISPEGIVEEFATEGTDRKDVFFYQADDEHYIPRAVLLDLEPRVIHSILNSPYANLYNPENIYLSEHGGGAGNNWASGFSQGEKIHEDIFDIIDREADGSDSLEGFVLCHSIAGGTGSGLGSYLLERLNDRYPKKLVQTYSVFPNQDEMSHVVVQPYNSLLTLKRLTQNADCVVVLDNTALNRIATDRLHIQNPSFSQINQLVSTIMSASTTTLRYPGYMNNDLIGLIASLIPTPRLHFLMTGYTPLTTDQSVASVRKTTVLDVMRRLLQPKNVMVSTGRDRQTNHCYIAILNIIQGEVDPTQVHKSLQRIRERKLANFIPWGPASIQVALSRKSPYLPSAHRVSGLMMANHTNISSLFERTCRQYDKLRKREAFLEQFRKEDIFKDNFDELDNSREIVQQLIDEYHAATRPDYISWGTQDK

Key:
Assay in all cases: affinity purification with mass spectrometry; Flag immunoprecipitation (anti-Flag antibody, Protein G Sepharose) from metaphase-arrested Xenopus CSF egg extracts expressing 2xFlag-huWdr8 constructs from added mRNA; 23 °C; washes TBS-T and TBS; dimethyl labelling against control IgG pull-down
[1] = target: T1, 2xFlag-huWdr8 wild-type (human) (UniProt Q9P2S5)
T1 sequence: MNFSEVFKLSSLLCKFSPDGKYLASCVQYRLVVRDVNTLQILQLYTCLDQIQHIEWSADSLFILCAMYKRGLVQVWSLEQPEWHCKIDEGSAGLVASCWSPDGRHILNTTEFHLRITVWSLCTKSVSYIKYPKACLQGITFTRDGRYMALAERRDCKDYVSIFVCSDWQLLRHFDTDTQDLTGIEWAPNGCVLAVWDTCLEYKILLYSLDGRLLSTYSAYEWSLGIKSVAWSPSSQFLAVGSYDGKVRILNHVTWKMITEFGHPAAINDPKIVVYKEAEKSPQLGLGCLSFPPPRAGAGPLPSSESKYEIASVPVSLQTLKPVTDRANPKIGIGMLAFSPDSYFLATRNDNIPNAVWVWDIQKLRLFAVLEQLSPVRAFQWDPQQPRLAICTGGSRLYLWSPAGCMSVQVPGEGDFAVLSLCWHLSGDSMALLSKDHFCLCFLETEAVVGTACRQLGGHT

2xFlag-359/360AA (human) = target: T2, 2xFlag-359/360AA (human) (UniProt Q9P2S5)
T2 sequence: T1 sequence with W359A, D360A

2xFlag-196/197AA (human) = target: T3, 2xFlag-196/197AA (human) (UniProt Q9P2S5)
T3 sequence: T1 sequence with W196A, D197A

binding [1] | binding (2xFlag-359/360AA (human)) | binding (2xFlag-196/197AA (human)) | Substance
no binding |  |  | kinesin-14
binds | binds | binds | γ-tubulin (from UniProt P23330 1-451)
binds | no binding | no binding | SSX2IP
binds | binds | binds | Nedd1
